Article PMC4316792, “The dehydrogenase region of the NADPH oxidase component Nox2 acts as a protein disulfide isomerase (PDI) resembling PDIA3 with a role in the binding of the activator protein p67^phox” (Frontiers in Chemistry, 2015)
Results are given in words; binding and its absence hold for the method and conditions named. Binding calls can cover weak binding; strength is not graded here.

By UniProt entry, the sequences of proteins in these tests, tags left out. Where a name states a change or a piece, a line headed by the entry shows the natural chain unless it says otherwise.
UniProt P04839: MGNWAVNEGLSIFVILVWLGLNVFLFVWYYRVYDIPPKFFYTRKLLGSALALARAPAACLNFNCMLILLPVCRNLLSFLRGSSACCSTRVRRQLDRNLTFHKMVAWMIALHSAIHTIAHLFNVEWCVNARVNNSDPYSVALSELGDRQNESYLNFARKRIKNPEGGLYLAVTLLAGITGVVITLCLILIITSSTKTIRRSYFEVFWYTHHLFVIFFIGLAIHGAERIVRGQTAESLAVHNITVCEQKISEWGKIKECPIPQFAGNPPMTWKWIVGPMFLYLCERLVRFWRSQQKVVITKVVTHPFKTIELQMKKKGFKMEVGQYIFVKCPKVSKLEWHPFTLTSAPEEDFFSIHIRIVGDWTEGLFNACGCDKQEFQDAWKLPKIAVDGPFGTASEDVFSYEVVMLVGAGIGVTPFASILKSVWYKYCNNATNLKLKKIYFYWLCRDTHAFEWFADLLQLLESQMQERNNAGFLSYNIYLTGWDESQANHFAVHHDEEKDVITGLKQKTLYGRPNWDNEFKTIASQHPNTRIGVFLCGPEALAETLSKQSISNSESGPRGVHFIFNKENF

Columns and labels:
[1] = target: T1, p67^phox(1–526) (UniProt P19878 1-526); assay: ELISA; protein—protein binding assay: p67^phox (0.5 μM in PBS) attached to 96-well plates 16–18 h at 4°C; NusA-Nox2 or NusA 0.5 μM in PBS with 0.1% Tween 20 and 1% casein, 1 h at room temperature; detected by anti-NusA antibody and peroxidase-conjugated anti-mouse IgG, mAbs at 650 nm per min; both …
T1 construct: construct as in Mizrahi et al., 2010; also called full-length p67^phox; 6His-p67^phox; source: E. coli, purified (Nickel Sepharose); not shown: 6His, N-terminal, kept
T1 sequence (looked up): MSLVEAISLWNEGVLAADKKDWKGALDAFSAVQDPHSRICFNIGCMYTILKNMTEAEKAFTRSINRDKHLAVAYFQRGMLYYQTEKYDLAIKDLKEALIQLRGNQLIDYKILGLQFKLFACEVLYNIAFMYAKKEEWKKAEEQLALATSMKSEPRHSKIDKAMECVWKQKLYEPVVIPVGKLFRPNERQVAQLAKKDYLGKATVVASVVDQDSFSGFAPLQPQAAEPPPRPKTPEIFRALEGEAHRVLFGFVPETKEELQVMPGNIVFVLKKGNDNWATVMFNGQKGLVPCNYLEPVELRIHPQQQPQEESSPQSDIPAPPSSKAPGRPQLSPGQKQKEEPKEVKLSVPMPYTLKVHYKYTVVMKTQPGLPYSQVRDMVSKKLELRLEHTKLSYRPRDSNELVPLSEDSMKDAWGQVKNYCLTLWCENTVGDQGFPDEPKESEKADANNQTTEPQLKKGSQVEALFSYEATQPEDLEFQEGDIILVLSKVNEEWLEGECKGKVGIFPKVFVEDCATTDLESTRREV

[2] = target: T2, p67^phox(1–212) (UniProt P19878 1-212); assay: as above
T2 construct: contains four cysteines (40, 45, 121, 165); source: E. coli, purified (Nickel Sepharose); not shown: 6His, N-terminal, kept
T2 sequence (looked up): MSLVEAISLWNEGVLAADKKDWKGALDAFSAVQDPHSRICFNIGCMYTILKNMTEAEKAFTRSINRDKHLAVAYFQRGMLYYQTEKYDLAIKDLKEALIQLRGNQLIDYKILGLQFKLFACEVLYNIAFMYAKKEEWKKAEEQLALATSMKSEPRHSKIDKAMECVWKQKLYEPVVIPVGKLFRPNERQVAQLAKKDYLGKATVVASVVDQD

Row | binding [1] | binding [2] | Substance
1 | binds | binds | NusA-Nox2(328–570) (from UniProt P04839) (domain or fragment)
2 | binds | binds | NusA-Nox2(357–570) (from UniProt P04839) (domain or fragment)
3 | no binding (tested: 0.5 μM) | no binding (tested: 0.5 μM) | NusA-Nox2(372–570) (from UniProt P04839) (domain or fragment)
4 | no binding (tested: 0.5 μM) | no binding (tested: 0.5 μM) | NusA-Nox2(387–570) (from UniProt P04839) (domain or fragment)
5 | no binding (tested: 0.5 μM) | no binding (tested: 0.5 μM) | NusA-Nox2(408–570) (from UniProt P04839) (domain or fragment)
6 | no binding (tested: 0.5 μM) | no binding (tested: 0.5 μM) | NusA-Nox2(444–570) (from UniProt P04839) (domain or fragment)
7 | no binding (tested: 0.5 μM) | no binding (tested: 0.5 μM) | NusA-Nox2(462–570) (from UniProt P04839) (domain or fragment)
